Laboratory results from article PMC7819943, “Rice protein-binding microarrays: a tool to detect cis-acting elements near promoter regions in rice”.
For at least one entry, the source does not settle the construct or the ends of the probe.

Tested on: OsWOX13 (Oryza sativa)
Assay: EMSA
Settings: EMSA: 5 ug protein, 40 fmol FAM-dsDNA, 1 ug poly(dI-dC), 1X binding buffer (Pierce), 2.5% glycerol, 0.05% NP-40, 20 ul, 1 h room temperature; 6% acrylamide gel, 0.5X TBE; recombinant protein; label: 5' FAM

Does “AATATAACGAAACATGCAATCAATCAAAATGTTGGGAAGG (double strand) [Os08g0536300_14 (Hd1-3 promoter probe)]” bind?
Result: binds
